According to patent US20250381110A1, “SKIN CARE COMPOSITION AND METHOD OF USING THE SAME” (THE PROCTER & GAMBLE COMPANY, priority 2024, published 2025):
Counter-ions that a name gives are not always drawn.

Tested on: p62-dependent mitophagy
Assay: Luciferase-p62 assay (Fluc-p62 clearance) in mouse embryonic fibroblasts
Assay type: cell-based
Protocol: To identify p62-dependent materials which increase mitophagy, a Luciferase-p62 Assay was established. This method provides an approach to measure the ability of a material to modulate p62-dependent mitophagy by using an inducible firefly luciferase-p62 (Fluc-p62) reporter cell system. In this assay, p62 levels are driven by doxycycline treatment. After levels increased, expression of Fluc-p62 is turned off by removal of doxycycline, materials are then added and assessed for how they affect clearance of Fluc-p62 protein, which is proportionate to cellular mitophagy rates (Kelly et al.). The negative control is doxycycline induced Luc-p62 in the absence of compound or bioactive material treatment and in the presence of vehicle (DMSO).
Test materials including bioactive materials were screened in mouse embryonic fibroblasts (MEFs, Harada et al.) expressing the TET-inducible p62-fluc construct as previously described (Brown et al.). […] Gibson assembly was used to insert firefly luciferase (Fluc) and p62 into the pCW57.1 backbone. Fluc, p62, and pCW57.1 were polymerase chain reaction (PCR) amplified using pfu polymerase (Life technologies) and Gibson assembly primers with 20 base pair (bp) overhangs. PCR products were separated by agarose gel electrophoreses, and fragments excised and purified before use in DNA assembly reaction with NEBuilder HiFi DNA Assembly kit (New England Biolabs). […] Subsequently, cells were treated with test materials for 48 hours in normal growth medium and analysed using ONE-Glo™+Tox Luciferase Reporter and Cell Viability Assay (Promega) by following the manufacturer's protocol.
Test compositions and control compositions were prepared as described above in the Luciferase-p62 assay (Method 3) and tested accordingly. The compounds used in this example, as examples of bioactive materials, were from the APExBIO DiscoveryProbe™ Natural Product Library Plus (Houston, TX) and evaluated at equivalent concentrations (10 μM).
Data are additionally calculated as percentage of activity relative to rapamycin, a benchmark control compound tested in the same experiment.

For CCC[C@@H]1C[C@@H](C(=O)N[C@@H]([C@H]2O[C@H](SC)[C@H](O)[C@@H](O)[C@H]2O)[C@H](C)Cl)N(C)C1 [Clindamycin HCl], the “Mean Luminescence” value (Luciferase-p62 assay, mouse embryonic fibroblasts (MEFs), compounds at 10 μM) was 803.11, the “% Activity over baseline” value (percentage of Luciferase-p62 clearance relative to baseline (mean luminescence in the absence of doxycycline induction), MEFs, 10 μM) was 50.37% and the “% Activity relative to Rapamycin” value (percentage of activity relative to rapamycin tested in the same experiment at the same concentration, MEFs, 10 μM) was 90.75%.
